Source: PMC5341950, “Antitumor activity of a novel anti-vascular endothelial growth factor receptor-1 monoclonal antibody that does not interfere with ligand binding” (Oncotarget, 2016)
Results are given in words; binding and its absence hold for the method and conditions named. Binding can be weak; no strength is given.

The chains behind the UniProt entries cited, without tags or fusion partners. Where a name states a change or a piece, a line headed by the entry shows the natural chain unless it says otherwise. Residues count along the entry.
UniProt P17948, residues 27-758: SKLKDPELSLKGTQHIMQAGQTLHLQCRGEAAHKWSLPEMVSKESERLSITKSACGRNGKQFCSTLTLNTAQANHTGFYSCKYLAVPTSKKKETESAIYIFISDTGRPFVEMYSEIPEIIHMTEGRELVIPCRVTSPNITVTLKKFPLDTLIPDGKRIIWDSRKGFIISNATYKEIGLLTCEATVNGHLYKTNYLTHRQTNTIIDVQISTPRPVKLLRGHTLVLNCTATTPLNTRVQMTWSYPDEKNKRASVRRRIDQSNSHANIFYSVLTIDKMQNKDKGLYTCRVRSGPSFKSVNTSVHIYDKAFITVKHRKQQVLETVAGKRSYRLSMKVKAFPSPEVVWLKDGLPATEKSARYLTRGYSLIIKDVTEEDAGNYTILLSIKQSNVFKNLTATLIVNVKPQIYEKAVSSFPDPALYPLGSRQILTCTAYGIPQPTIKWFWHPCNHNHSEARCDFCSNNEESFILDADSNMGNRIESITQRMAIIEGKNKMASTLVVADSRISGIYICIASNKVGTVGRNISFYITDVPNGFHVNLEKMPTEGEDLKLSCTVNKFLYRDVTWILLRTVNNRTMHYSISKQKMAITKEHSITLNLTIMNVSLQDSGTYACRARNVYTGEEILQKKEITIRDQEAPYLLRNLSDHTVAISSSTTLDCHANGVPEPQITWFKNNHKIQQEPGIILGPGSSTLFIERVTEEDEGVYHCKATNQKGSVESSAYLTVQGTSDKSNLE

Target: T1, recombinant VEGFR-1/Fc chimera (UniProt P17948 27-758)
T1 construct: Vascular endothelial growth factor receptor-1 (VEGFR-1), extracellular region, fused with the Fc region of human immunoglobulins; Bought chimera; source: bought: R&D Systems
Test: ELISA; 96-well Maxisorp plates coated with 10 ug/ml VEGFR-1/Fc chimera in PBS, blocked with 3% BSA in PBS; 50 ng/ml PlGF or VEGF-A in blocking buffer, 2 h; detection with biotinylated anti-VEGF-A or anti-PlGF antibodies and streptavidin-alkaline phosphatase, absorbance at 405 nm; selected wells pre-incubated with D16F7 or control mAb; both purified

With “recombinant placenta growth factor (PlGF) homodimer (from UniProt P49763-2) (ligand)” the binding was “binds”.
